Test results as given in patent publication US20050191612A1, “Method of screening insulin content enhancer” (priority 2002, published 2005).
Some of these results come from one statement about several compounds together.

Molecular target: T1, polypeptide consisting of the amino acid sequence of SEQ ID NO: 2 (Homo sapiens, UniProt Q8TDV5)
T1 construct: expressed in transfected cells; host or cells: 293-EBNA cells (HEK293-derived, Invitrogen), transiently transfected with plasmid pEF-BOS-NA and pCRE-Luc
T1 sequence (Q8TDV5 1-335): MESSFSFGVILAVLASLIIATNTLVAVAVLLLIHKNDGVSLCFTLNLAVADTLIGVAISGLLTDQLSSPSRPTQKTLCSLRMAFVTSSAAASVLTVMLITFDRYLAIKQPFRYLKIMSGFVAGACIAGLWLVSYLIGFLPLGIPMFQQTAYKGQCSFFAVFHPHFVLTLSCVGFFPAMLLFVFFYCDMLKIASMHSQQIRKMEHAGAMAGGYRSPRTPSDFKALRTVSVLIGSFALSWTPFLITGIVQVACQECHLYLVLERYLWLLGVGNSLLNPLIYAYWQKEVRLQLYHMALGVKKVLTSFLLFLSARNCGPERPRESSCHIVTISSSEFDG
Assay: cAMP-type screening: CRE-luciferase reporter activity in 293-EBNA cells transfected with plasmid pEF-BOS-NA versus control vector pEF-BOS
Format: cell-based
Settings: compound 10 μmol/L, pCRE-Luc

Row | Compound | increased value of the reporter activity in the plasmid pEF-BOS-NA-transfected cell with respect to that in the plasmid pEF-BOS-transfected cell
1 | Cc1noc(-c2ccc(CSc3nc(N)n[nH]3)cc2)n1 [compound E, 5-{[4-(3-methyl-1,2,4-oxadiazole-5-yl)benzyl]thio}-1H-1,2,4-triazole-3-amine] | ≥ 3 times
2 | COc1ccc(/C=C/c2ccncc2)cc1OC [compound D, 4-[(E)-2-(3,4-dimethoxyphenyl)vinyl]pyridine] | ≥ 3 times
3 | S=C(OCCc1ccncc1)c1ccccc1 [compound A, 2-(pyridine-4-yl)ethyl thiobenzoate] | ≥ 3 times
4 | CCN1C(=O)/C(=C\c2ccc(-c3ccc(C(=O)O)cc3)o2)N(CC)C1=S [compound B, 4-{5-[(E)-(1,3-diethyl-5-oxo-2-thioxoimidazolidine-4-ylidene)methyl]-2-furyl}benzoic acid] | ≥ 5 times
5 | COc1ccc(/C=C(\C#N)c2ccc(OC)c(OC)c2)cc1OC [compound C, (2Z)-2,3-bis(3,4-dimethoxyphenyl)acrylonitrile] | ≥ 5 times
